# Percent effect of library compounds

Sequences of proteins named here, by UniProt entry; tags and fusion partners are left off. Residues count along the entry.
UniProt P9WNZ1, whole entry: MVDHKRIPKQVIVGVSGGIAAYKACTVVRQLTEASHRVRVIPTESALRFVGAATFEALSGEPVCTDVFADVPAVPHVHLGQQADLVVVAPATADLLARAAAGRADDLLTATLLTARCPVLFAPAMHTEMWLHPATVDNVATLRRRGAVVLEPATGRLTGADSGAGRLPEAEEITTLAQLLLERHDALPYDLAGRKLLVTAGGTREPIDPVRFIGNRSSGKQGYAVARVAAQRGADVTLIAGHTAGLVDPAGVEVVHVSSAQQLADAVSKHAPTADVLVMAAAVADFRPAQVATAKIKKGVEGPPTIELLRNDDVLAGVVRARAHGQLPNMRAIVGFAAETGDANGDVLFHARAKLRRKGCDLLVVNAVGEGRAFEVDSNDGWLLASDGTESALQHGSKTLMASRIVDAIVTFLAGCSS
UniProt I6X8D2, whole entry: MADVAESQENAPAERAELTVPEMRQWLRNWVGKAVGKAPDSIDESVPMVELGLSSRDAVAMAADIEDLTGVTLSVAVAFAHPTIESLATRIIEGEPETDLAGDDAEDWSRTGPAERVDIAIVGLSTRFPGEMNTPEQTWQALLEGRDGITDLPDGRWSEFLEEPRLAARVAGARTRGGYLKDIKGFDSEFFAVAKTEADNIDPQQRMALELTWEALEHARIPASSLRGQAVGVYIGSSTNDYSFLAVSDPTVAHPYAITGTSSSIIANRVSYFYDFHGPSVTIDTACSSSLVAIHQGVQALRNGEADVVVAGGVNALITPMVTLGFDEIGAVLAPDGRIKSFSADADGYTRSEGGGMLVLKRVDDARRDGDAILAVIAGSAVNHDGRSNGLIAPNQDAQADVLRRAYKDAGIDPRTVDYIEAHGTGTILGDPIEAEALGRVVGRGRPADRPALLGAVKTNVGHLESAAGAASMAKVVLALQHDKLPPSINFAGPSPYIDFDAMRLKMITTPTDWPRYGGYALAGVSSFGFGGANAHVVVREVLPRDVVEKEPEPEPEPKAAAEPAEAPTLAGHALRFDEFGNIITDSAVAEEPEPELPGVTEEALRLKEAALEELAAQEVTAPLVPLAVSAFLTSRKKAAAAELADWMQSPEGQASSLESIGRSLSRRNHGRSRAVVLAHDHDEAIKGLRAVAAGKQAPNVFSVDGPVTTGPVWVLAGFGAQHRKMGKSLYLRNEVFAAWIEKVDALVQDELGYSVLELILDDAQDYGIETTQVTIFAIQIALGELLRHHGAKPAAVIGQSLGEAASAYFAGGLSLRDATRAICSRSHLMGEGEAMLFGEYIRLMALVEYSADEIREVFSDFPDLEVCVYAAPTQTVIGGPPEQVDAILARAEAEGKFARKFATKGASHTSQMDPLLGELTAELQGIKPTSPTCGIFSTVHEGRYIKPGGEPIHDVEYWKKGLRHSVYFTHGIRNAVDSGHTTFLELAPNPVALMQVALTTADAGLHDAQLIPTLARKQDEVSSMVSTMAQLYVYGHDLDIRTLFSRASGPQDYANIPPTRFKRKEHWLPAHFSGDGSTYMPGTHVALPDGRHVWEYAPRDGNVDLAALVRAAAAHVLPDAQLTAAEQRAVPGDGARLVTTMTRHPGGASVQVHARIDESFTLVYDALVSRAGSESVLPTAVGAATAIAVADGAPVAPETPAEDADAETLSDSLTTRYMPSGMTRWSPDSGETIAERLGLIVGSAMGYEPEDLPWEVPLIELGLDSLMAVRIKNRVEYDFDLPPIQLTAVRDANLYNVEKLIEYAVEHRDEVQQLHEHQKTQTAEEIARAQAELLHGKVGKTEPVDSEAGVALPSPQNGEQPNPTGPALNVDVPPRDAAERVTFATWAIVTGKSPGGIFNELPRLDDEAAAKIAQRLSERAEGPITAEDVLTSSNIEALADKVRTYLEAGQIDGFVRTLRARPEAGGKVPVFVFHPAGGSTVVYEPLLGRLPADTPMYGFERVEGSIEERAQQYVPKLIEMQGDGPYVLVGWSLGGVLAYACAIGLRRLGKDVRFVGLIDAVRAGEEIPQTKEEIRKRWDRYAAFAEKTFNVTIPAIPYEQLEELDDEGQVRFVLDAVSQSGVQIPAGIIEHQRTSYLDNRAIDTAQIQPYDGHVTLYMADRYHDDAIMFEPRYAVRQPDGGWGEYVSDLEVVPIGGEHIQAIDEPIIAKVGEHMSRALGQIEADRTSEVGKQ
UniProt P9WPC5, whole entry: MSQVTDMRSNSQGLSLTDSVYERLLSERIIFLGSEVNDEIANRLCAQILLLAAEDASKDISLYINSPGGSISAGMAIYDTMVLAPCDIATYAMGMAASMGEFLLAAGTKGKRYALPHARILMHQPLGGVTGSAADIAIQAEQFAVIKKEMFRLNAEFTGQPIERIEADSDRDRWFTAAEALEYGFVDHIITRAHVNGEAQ
UniProt P9WPC3, whole entry partner: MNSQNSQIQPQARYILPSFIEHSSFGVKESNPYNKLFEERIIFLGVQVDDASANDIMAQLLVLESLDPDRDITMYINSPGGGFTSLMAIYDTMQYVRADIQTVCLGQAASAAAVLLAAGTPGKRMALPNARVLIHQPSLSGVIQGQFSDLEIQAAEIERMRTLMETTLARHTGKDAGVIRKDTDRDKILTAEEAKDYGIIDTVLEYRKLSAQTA
UniProt Q4DA54, 1-478: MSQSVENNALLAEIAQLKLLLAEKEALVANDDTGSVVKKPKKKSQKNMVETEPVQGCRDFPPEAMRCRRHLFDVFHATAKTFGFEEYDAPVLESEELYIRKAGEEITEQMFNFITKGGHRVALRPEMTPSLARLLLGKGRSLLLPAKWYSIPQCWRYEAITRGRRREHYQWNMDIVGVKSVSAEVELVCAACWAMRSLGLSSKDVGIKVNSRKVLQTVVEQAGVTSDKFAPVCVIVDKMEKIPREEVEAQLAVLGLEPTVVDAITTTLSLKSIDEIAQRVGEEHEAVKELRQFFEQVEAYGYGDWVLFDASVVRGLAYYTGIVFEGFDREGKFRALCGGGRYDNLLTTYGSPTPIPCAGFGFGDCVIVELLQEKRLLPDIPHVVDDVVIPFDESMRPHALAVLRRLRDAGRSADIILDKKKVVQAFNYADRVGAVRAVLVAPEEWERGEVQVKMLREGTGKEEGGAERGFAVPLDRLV

A: 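Coenzyme A biosynthesis protein CoaBC, Mycobacterium tuberculosis (UniProt P9WNZ1). Enzyme assay of CoaBC with a phosphate dye (Biomol Green) read at 650 nm. Compounds at 30 µM. Direction is inferred from only a few compounds that gave an IC50; most scored high, so higher reads as stronger inhibition. Most strong results did not repeat in a second test. Of about 67,000 compounds tested this way, about 40 (0.06%) reached 50% or more in at least one test.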
B: 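Cell assay of Leishmania donovani living inside macrophages; the read-out is not stated. Tested at 30 µM. Direction is inferred from retests: higher values go with stronger inhibition. Of about 69,000 compounds tested this way, about 1,000 (1.5%) reached 50% or more in at least one test.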
C: 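Enzyme assay of the thioesterase domain of polyketide synthase 13; the read-out is not stated. Target: Polyketide synthase Pks13, Mycobacterium tuberculosis (UniProt I6X8D2). Tested at 30 µM. The record gives no direction; the compounds picked for IC50 retests had high values, so higher reads as stronger inhibition. Size under these conditions: about 67,000 compounds, about 300 of them at 50% or above in at least one test.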
D: 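Protease assay of ClpP1P2, read by the AMC dye that it sets free. Target: ClpP1P2, Mycobacterium tuberculosis (UniProt P9WPC5 and UniProt P9WPC3). Tested at 50 µM. Higher reads as stronger inhibition, judged from the few compounds that gave an IC50. Most other retested compounds had strongly negative values. About 69,000 compounds were tested under these conditions; 0.015% (about 10) showed 50% or more at least once.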
E: 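Histidine-tRNA ligase, Trypanosoma cruzi CL Brener (UniProt Q4DA54). Enzyme assay of histidyl-tRNA synthetase; the read-out is not stated. Compounds at 30 µM. The record gives no direction; compounds that gave an IC50 in retests scored well above the rest, so higher reads as stronger inhibition. Of about 69,000 compounds tested this way, about 31 (0.045%) reached 50% or more in at least one test.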

Results are given as percent effect. The record does not define 0% and 100%; most values in the screen are far below 50% and negative numbers occur (in some assays of this library far below -100). Compounds were drawn at random from those tested, without regard to their results.

{"compound": "CN(CCNC(=O)c1scnc1Cl)c1ccccc1", "A": 3.781, "B": -22.9, "C": -1.701, "D": -5.382, "E": 6.415}
{"compound": "C1CC(CN2CCOCC3(CCN(C4CCOCC4)C3)C2)CCO1", "stereo": "centres undefined", "A": 1.673, "B": 27.26, "C": -18.59, "D": 1.667, "E": 0.5464}
{"compound": "COCCn1ccc(=O)c(OCC(=O)Nc2cccc(C(C)=O)c2)c1C", "A": 2.826, "B": 12.58, "C": -32.27, "D": 10.81, "E": 1.639}
{"compound": "CCCC(=O)NCC(=O)NC(c1ccc(Cl)cc1)C(F)(F)F", "stereo": "centres undefined", "A": 1.945, "B": -6.268, "C": 3.881, "D": -6.328, "E": 2.02}
{"compound": "N#Cc1cccnc1N1CCCN(C(=O)CCn2cncn2)CC1", "A": 4.099, "B": 3.366, "C": 13.63, "D": -105.6, "E": 8.309}
{"compound": "NC(=O)c1ccc(C(=O)N2CCCCC2Cn2cccn2)s1", "stereo": "centres undefined", "A": 1.149, "B": 5.873, "C": -34.06, "D": -26.15, "E": 0.578}
{"compound": "O=C(O)C(F)(F)F.[H][C@@]12CCCO[C@]1([H])[C@H](NS(C)(=O)=O)CN(Cc1ccco1)C2", "B": 15.64}
{"compound": "COc1ncccc1CNC(=O)C1=NN(c2ccccc2)C(=O)CN1", "A": 8.155, "B": -11.09, "C": -34.56, "D": 8.263, "E": 0}
{"compound": "COCCC(=O)N1C[C@@H](c2ccccc2F)[C@@]2(CCCC(=O)N2)C1", "A": 4.785, "B": -6.16, "C": -3.917, "D": -4.238, "E": 0.7752}
{"compound": "CN1CCCN(C(=O)c2cnc(C(C)(C)C)nc2O)CC1", "A": -2.046, "B": -2.532, "C": 30.27, "D": 0.01572, "E": 4.04}
{"compound": "CCS(=O)(=O)NCCNc1c(C#N)cnc2c(C)cc(F)cc12", "A": -0.3226, "B": 21.3, "C": 0.2016, "D": -5.575, "E": 5.419}
{"compound": "Cc1nsc2ncc(C(=O)N3CCCC3c3cnn(C)c3)cc12", "stereo": "centres undefined", "A": -9.545, "B": -69.32, "C": -22, "D": -16.84, "E": 2.882}
{"compound": "Cc1ccc(C(CNC(=O)c2c(C)noc2C(C)C)N(C)C)cc1", "stereo": "centres undefined", "A": -0.4386, "B": 30.78, "C": -9.772, "D": -5.404, "E": 3.488}
{"compound": "Fc1ccc(CN2CCCn3nnc(COCC4CC4)c3C2)cc1.O=C(O)C(F)(F)F", "B": -0.08958}
{"compound": "[H][C@]12CCN(Cc3cc(Cn4cncn4)c(C)cc3C)C[C@]([H])(CC1)N2", "B": 12.47}
{"compound": "Cc1ncsc1CN1CCN(C)C2(CCC(=O)N(CCO)CC2)C1", "stereo": "centres undefined", "A": -1.129, "B": 30.69, "C": -21.69, "D": -18.53, "E": 0.4878}
{"compound": "CCc1ncc2c(n1)CN(C(=O)CNC(=O)C(C)C)C2", "A": -1.863, "B": -5.645, "C": 8.029, "D": -1.377, "E": -8.696}
{"compound": "O=C(NCC1CC1)[C@@H]1CC[C@@H]2[C@@H](CCN2Cc2ccc(F)c(F)c2)O1", "A": 14.57, "C": -26.46, "D": -8.717, "E": 2.804}
{"compound": "COCCN1CCN(CC(=O)N(C)Cc2ccsc2)CC1C", "stereo": "centres undefined", "A": 1.208, "B": 4.223, "C": -26.51, "D": 6.401, "E": 9.677}
{"compound": "CCCS(=O)(=O)N1Cc2nccn2CC(CN2CCCC2)C1", "stereo": "centres undefined", "A": -16.36, "C": -25.14, "D": -3.534, "E": 4.348}
{"compound": "O=C(c1ccccc1)N1CCO[C@@H]2CN(c3cnccn3)C[C@@H]2C1", "C": -22.34, "D": -2.853, "E": 7.362}

Repeated from the top, 2 entries:

| compound | A | B | C | D | E |
|---|---|---|---|---|---|
| `CN(CCNC(=O)c1scnc1Cl)c1ccccc1` | 3.781 | -22.9 | -1.701 | -5.382 | 6.415 |
| `C1CC(CN2CCOCC3(CCN(C4CCOCC4)C3)C2)CCO1` (centres undefined) | 1.673 | 27.26 | -18.59 | 1.667 | 0.5464 |

Source: ChEMBL document CHEMBL3988442, “University of Dundee, Small-Polar-MMV Screening Library” (2021).